According to the supplement of paper PMC6078165:

Tested on: MDAMB231
Assay: relative JC-1 red fluorescence (viability) vs pre-drug, coculture with fibroblast (fraction); higher = more viable cancer cells
Experimental: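 JC-1 labelled TNBC cells cocultured 1:1 (1,500 cells each) with CellTrace Violet stained primary or stromal fibroblasts in 384-well plates in FluoroBrite medium, treated with one of 42 anticancer drugs at 0.1, 1, 10 or 100 uM. JC-1 red fluorescence (mitochondrial integrity in cancer cells only) was read by plate reader every 8 h for 72 h. Values are normalised to each well's pre-drug value. The stock of one drug was tenfold lower, so its dose labels may be too high.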

N#Cc1ccc(C(c2ccc(C#N)cc2)n2cncn2)cc1 [Letrozole]
relative JC-1 red fluorescence
Details | 8 h | 16 h | 24 h | 32 h | 40 h | 48 h | 56 h | 64 h | 72 h
0.1 µM, coculture fibroblast: C12385 | 0.764 | 0.7099 | 0.622 | 0.585 | 0.522 | 0.491 | 0.443 | 0.437 | 0.4097
0.1 µM, coculture fibroblast: H6013 | 0.866 | 0.811 | 0.781 | 0.77 | 0.724 | 0.6873 | 0.6679 | 0.6442 | 0.609
0.1 µM, coculture fibroblast: H6019 | 0.801 | 0.777 | 0.733 | 0.708 | 0.668 | 0.636 | 0.592 | 0.565 | 0.524
0.1 µM, coculture fibroblast: H6076 | 0.82 | 0.904 | 0.871 | 0.846 | 0.809 | 0.778 | 0.742 | 0.715 | 0.698
0.1 µM, coculture fibroblast: H6231 | 0.939 | 0.8299 | 0.743 | 0.687 | 0.635 | 0.593 | 0.549 | 0.527 | 0.501
0.1 µM, coculture fibroblast: HADF | 0.884 | 0.817 | 0.774 | 0.7365 | 0.695 | 0.652 | 0.634 | 0.617 | 0.569
0.1 µM, coculture fibroblast: HCFa | 0.8879 | 0.806 | 0.749 | 0.706 | 0.6425 | 0.5884 | 0.56 | 0.524 | 0.4731
0.1 µM, coculture fibroblast: HCPF | 0.895 | 0.792 | 0.74 | 0.714 | 0.657 | 0.617 | 0.58 | 0.547 | 0.528
0.1 µM, coculture fibroblast: HHSteC | 0.8708 | 0.806 | 0.752 | 0.6873 | 0.64 | 0.604 | 0.56 | 0.538 | 0.497
0.1 µM, coculture fibroblast: HMF | 0.861 | 0.752 | 0.687 | 0.646 | 0.596 | 0.548 | 0.507 | 0.489 | 0.4652
0.1 µM, coculture fibroblast: HPFa | 0.942 | 0.871 | 0.8229 | 0.762 | 0.723 | 0.682 | 0.624 | 0.589 | 0.53
0.1 µM, coculture fibroblast: HUF | 0.8818 | 0.738 | 0.755 | 0.64 | 0.578 | 0.555 | 0.502 | 0.499 | 0.472
0.1 µM, coculture fibroblast: Hs5 | 0.887 | 0.8025 | 0.721 | 0.66 | 0.606 | 0.555 | 0.503 | 0.472 | 0.434
0.1 µM, coculture fibroblast: Hs27A | 0.8766 | 0.7919 | 0.741 | 0.717 | 0.661 | 0.588 | 0.592 | 0.572 | 0.522
0.1 µM, coculture fibroblast: Hs343T | 0.859 | 0.721 | 0.672 | 0.634 | 0.582 | 0.537 | 0.494 | 0.481 | 0.459
0.1 µM, coculture fibroblast: WS1 | 0.789 | 0.727 | 0.657 | 0.614 | 0.559 | 0.534 | 0.492 | 0.474 | 0.444
1 µM, coculture fibroblast: C12385 | 0.766 | 0.716 | 0.679 | 0.61 | 0.545 | 0.523 | 0.4853 | 0.483 | 0.466
1 µM, coculture fibroblast: H6013 | 0.897 | 0.812 | 0.76118 | 0.748 | 0.7 | 0.679 | 0.665 | 0.642 | 0.59
1 µM, coculture fibroblast: H6019 | 0.729 | 0.639 | 0.647 | 0.575 | 0.538 | 0.5263 | 0.489 | 0.4789 | 0.436
1 µM, coculture fibroblast: H6076 | 0.862 | 0.774 | 0.729 | 0.711 | 0.681 | 0.656 | 0.643 | 0.6372 | 0.625
1 µM, coculture fibroblast: H6231 | 0.932 | 0.8425 | 0.755 | 0.712 | 0.649 | 0.614 | 0.563 | 0.539 | 0.511
1 µM, coculture fibroblast: HADF | 0.8838 | 0.8468 | 0.781 | 0.759 | 0.715 | 0.68534 | 0.6533 | 0.619 | 0.5723
1 µM, coculture fibroblast: HCFa | 0.916 | 0.841 | 0.801 | 0.778 | 0.725 | 0.673 | 0.648 | 0.604 | 0.546
1 µM, coculture fibroblast: HCPF | 0.866 | 0.775 | 0.701 | 0.673 | 0.618 | 0.579 | 0.536 | 0.512 | 0.491
1 µM, coculture fibroblast: HHSteC | 0.9 | 0.848 | 0.809 | 0.749 | 0.713 | 0.684 | 0.641 | 0.622 | 0.568
1 µM, coculture fibroblast: HMF | 0.9043 | 0.8029 | 0.715 | 0.678 | 0.612 | 0.569 | 0.5238 | 0.49965 | 0.4742
1 µM, coculture fibroblast: HPFa | 0.946 | 0.905 | 0.864 | 0.801 | 0.772 | 0.739 | 0.679 | 0.648 | 0.592
1 µM, coculture fibroblast: HUF | 0.8363 | 0.7298 | 0.739 | 0.591 | 0.533 | 0.5154 | 0.4653 | 0.461 | 0.444
1 µM, coculture fibroblast: Hs5 | 0.873 | 0.788 | 0.734 | 0.677 | 0.63 | 0.581 | 0.533 | 0.509 | 0.47
1 µM, coculture fibroblast: Hs27A | 0.8654 | 0.8088 | 0.782 | 0.758 | 0.716 | 0.6681 | 0.65512 | 0.6326 | 0.569
1 µM, coculture fibroblast: Hs343T | 0.889 | 0.779 | 0.692 | 0.653 | 0.587 | 0.528 | 0.469 | 0.442 | 0.41
1 µM, coculture fibroblast: WS1 | 0.756 | 0.6823 | 0.6232 | 0.5714 | 0.522 | 0.489 | 0.446 | 0.429 | 0.402

The reference is the same well before dosing, and untreated signal decays as well.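 Fibroblast labels denote human fibroblasts, mainly primary ones from uterus (C12385, HUF), lung (H6013), bone (Hs27A), adrenal (HADF) and skin (WS1), plus mammary HMF and breast cancer-associated Hs343T. Cancer cells are basal-like or mesenchymal-like triple-negative breast cancer lines. A hit is a response shift exceeding 3x replicate standard deviation. The tissue of the other fibroblasts is not given here.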
